The values that follow come from PMC7819943, “Rice protein-binding microarrays: a tool to detect cis-acting elements near promoter regions in rice”.

The chains behind the UniProt entries cited, without tags or fusion partners.
UniProt Q0JBA9, entry or part of it: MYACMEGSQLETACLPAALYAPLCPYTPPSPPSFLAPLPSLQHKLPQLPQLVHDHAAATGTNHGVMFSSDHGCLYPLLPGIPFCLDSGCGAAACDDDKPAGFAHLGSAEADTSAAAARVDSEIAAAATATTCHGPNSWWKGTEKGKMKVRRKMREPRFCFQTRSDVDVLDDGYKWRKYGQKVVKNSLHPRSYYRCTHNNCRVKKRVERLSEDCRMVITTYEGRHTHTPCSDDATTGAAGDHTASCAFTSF

The list shows a part of the results.

The assay deals with OsWRKY34 (Oryza sativa, UniProt Q0JBA9 1-250). Put plainly: protein-binding microarray (RPBM); PBS, 2% BSA, 51.3 ng/ul salmon testes DNA, 50 uM zinc acetate, 200 nM TF, 25 C, 1 h; high values mean tight binding. The settings on record: protein: recombinant; tags: N-terminal polyhistidine and DsRed monomer fusion (pET32a); label: CyDye5-dUTP incorporated in the synthesized complementary strand; 3' TTTTT single-stranded linker to array surface; dsDNA, one strand shown. In outline:
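Per-feature fluorescence intensity (arbitrary units), read on an Axon 4000B scanner, is the binding signal. Transcription factors carrying an N-terminal polyhistidine tag and DsRed fusion were expressed in E. coli BL21-CodonPlus and purified on Ni–NTA. A custom Agilent array, made double-stranded by primer extension with Cy5-dUTP and blocked with 2% BSA, was incubated with 200 nM protein in PBS, 2% BSA, salmon testes DNA and 50 µM zinc acetate at 25 °C for 1 h and then washed.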
As for “CACACCTCTATCTCCTTTGTTTCTGTTCCCAATTTCTATTCGGAGTCACCTAGTGCAG”, the binding signal was 14500 fluorescence intensity (a.u.).

As to “CCAAACTCATCTGCCAACATGTTAATTACTTTTATGCTGCCGGAGTCACCTAGTGCAG”, the binding signal is 8150 fluorescence intensity (a.u.).

As to “CGCCCCGCCATCCTACTGCTCCTACTGCTCTATCGAGTTCCGGAGTCACCTAGTGCAG”, the binding signal is 11600 fluorescence intensity (a.u.).

On to “TCCTGGATTCACAGGTCTACATTTGCAGCTCGACCTTTGACGGAGTCACCTAGTGCAG”, for which the binding signal is 10000 fluorescence intensity (a.u.).

Regarding “CTCTCTCCCGCCATATTCTGGTCACCTCCGGTGAGCTCACCGGAGTCACCTAGTGCAG”, the binding signal was 10300 fluorescence intensity (a.u.).

Consider “CTTGCAATTTATACGTAATCTGTGTAATTAGTTTTTTTTGCGGAGTCACCTAGTGCAG”, for which the binding signal is 9120 fluorescence intensity (a.u.).

As to “TCATTCCCTCCGTACCATTATGTTTGGGTTCTGTTGTGCTCGGAGTCACCTAGTGCAG”, the binding signal was 9750 fluorescence intensity (a.u.).

Turning to “CCAGTTCAACACCGTCACGTAGGCGCCACATCAGCGAAATCGGAGTCACCTAGTGCAG”, the binding signal was 8430 fluorescence intensity (a.u.).

For “AATACGGTTTGGAAGGGATCTTTTTTGGTTGGTTGCACTGCGGAGTCACCTAGTGCAG”, the binding signal was 9650 fluorescence intensity (a.u.).

In the case of “TCTCACTGTCTTTCTCACACGCACGCACGCGAGAGCGCACCGGAGTCACCTAGTGCAG”, the binding signal was 8880 fluorescence intensity (a.u.).

Regarding “CGGTTAGTTAGTTGATTAGTTATCTGCATGTTTCTGTTTTCGGAGTCACCTAGTGCAG”, the binding signal was 10200 fluorescence intensity (a.u.).

As for “AAGCTGCCTGCCTTTCGTTTTCCAGCTTCCAACGCGATCTCGGAGTCACCTAGTGCAG”, the binding signal is 8420 fluorescence intensity (a.u.).

“CCACCGGCCGCCGCGCCGCGCCCCTTCTCCCAGCCGGACACGGAGTCACCTAGTGCAG”: the binding signal is 8860 fluorescence intensity (a.u.).

Regarding “ACTCTACAGAAGAGCCCTAAATTTTGTTCTTTCTTGTTCTCGGAGTCACCTAGTGCAG”, the binding signal is 8260 fluorescence intensity (a.u.).

With “TGGACTTGTGGTCGGAGGTGGGATTGATTTGGGTGACATGCGGAGTCACCTAGTGCAG”, the binding signal is 8900 fluorescence intensity (a.u.).

Turning to “GTAGCTTCTGCCTCGCGTCCGTCTCCTGCATCCGCAGTCGCGGAGTCACCTAGTGCAG”, the binding signal is 8510 fluorescence intensity (a.u.).

As for “TCTTACTCTCTCAGTTTCAAGTTATAAAATGTTTTGGCTTCGGAGTCACCTAGTGCAG”, the binding signal is 9020 fluorescence intensity (a.u.).

For “AATCCGTTCATATCACCTCGCTCGCTTAGCCGTACGCGTGCGGAGTCACCTAGTGCAG”, the binding signal is 8030 fluorescence intensity (a.u.).

Consider “CTCACCCCACCGCGCCCTCTCTTCGCCGTCTGACCCGTCACGGAGTCACCTAGTGCAG”, for which the binding signal was 9030 fluorescence intensity (a.u.).

On to “ACGCATGGGTTTTTTCTGTACCCTTAATCGAGATATCACTCGGAGTCACCTAGTGCAG”, for which the binding signal is 11000 fluorescence intensity (a.u.).

As to “TCAGTACATCACCCAATCCAATGTTGTCTCGCAGAAATCACGGAGTCACCTAGTGCAG”, the binding signal is 8490 fluorescence intensity (a.u.).

As for “TCACCGGCTGCTACTACCGCCTTATCGCTGCCTTGCTACCCGGAGTCACCTAGTGCAG”, the binding signal is 10200 fluorescence intensity (a.u.).

As to “AAACTGCTCCGAATTATTTCGTACTTTCTGTTCTTGTTTTCGGAGTCACCTAGTGCAG”, the binding signal was 9900 fluorescence intensity (a.u.).

In the case of “GAATTTAAAGCGTTATTTTCATTTTAGTTCTGAAATCTCACGGAGTCACCTAGTGCAG”, the binding signal was 8220 fluorescence intensity (a.u.).

Take “TTGGTTGGTTGGGTGACATTTTATTTATTGGTTGAGGTTACGGAGTCACCTAGTGCAG”: the binding signal is 10600 fluorescence intensity (a.u.).

As for “GACTAGGATTGTTGACCCTACATTTTTTTCCCACTTACATCGGAGTCACCTAGTGCAG”, the binding signal is 11500 fluorescence intensity (a.u.).

Turning to “TTCACTGCAGCAGCTGTCTTGCTCCCTCTTTTTCATCTTGCGGAGTCACCTAGTGCAG”, the binding signal was 9330 fluorescence intensity (a.u.).

As for “GATTTATTGCAACAGTGCGTGTGGTGGGGCGCGTGGTGGACGGAGTCACCTAGTGCAG”, the binding signal was 11200 fluorescence intensity (a.u.).

Consider “CTCTCAGACTCACACTGTCACACATGCACTCCACACTTACCGGAGTCACCTAGTGCAG”, for which the binding signal was 11500 fluorescence intensity (a.u.).

In the case of “ACATACACTACACACCCTGTTCTTGCAGTACGCCAATTAACGGAGTCACCTAGTGCAG”, the binding signal is 9780 fluorescence intensity (a.u.).

With “CTCTAGCTACCTCGATCACCACCTCTCTCTCTCTCAAGCACGGAGTCACCTAGTGCAG”, the binding signal was 9650 fluorescence intensity (a.u.).

On to “TTACAAGACTTAATTTCAAGGTCCGTCGATTGTCTCTCCACGGAGTCACCTAGTGCAG”, for which the binding signal is 8830 fluorescence intensity (a.u.).

For “GCACCTCAGCCTTATCATACAGTAGAATATAGAACATTTGCGGAGTCACCTAGTGCAG”, the binding signal was 8410 fluorescence intensity (a.u.).

On to “CAACCTGTCATACACACACCTTTTTAGTTACATCATCTCTCGGAGTCACCTAGTGCAG”, for which the binding signal is 8190 fluorescence intensity (a.u.).

For the sequence “CGATCACTTCGCCCGGCCAATGCTCCGCTATAAAACCCTCCGGAGTCACCTAGTGCAG”, the binding signal was 8310 fluorescence intensity (a.u.).

For “TCATTTTACTATTTTACTATTTATTTTTGTGGTCTATTTACGGAGTCACCTAGTGCAG”, the binding signal is 9260 fluorescence intensity (a.u.).

As to “GCATGGGCAGATTGTTGGGCTTTCTTTGGTTCAGCTGAACCGGAGTCACCTAGTGCAG”, the binding signal is 9200 fluorescence intensity (a.u.).

“TGAAGTAATTTTCCTTAAGTATTCCTGCACGTTTGTTCTACGGAGTCACCTAGTGCAG”: the binding signal is 8450 fluorescence intensity (a.u.).

With “GGGTGGACTTTTCGTACTCGTGGATGGGCCTACCAAAATGCGGAGTCACCTAGTGCAG”, the binding signal was 8410 fluorescence intensity (a.u.).

With “ACTTGATGTTCTTTCGTTCTTTCCTGCGAAAACGTCAGGCCGGAGTCACCTAGTGCAG”, the binding signal is 25600 fluorescence intensity (a.u.).

On to “CTTCGCCATCGTCTCCTCCTAGGCATGTGTTGTTGCTCCGCGGAGTCACCTAGTGCAG”, for which the binding signal was 10700 fluorescence intensity (a.u.).

For “AGCACACAAATGCCCAATCTGCCACTTTCCACTTCTCTGCCGGAGTCACCTAGTGCAG”, the binding signal was 8370 fluorescence intensity (a.u.).
